Results published in PubChem BioAssay AID1508600 (Functional Genomics Laboratory (NCATS/FGL), 2020).
The whole screen tested about 53,000 sequences, of which about 3,700 (7%) were called active.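 Rule for the calls: active = gene knockdowns whose robust z-score for IL-1 alpha signal is at least 2 or at most -2, so actives lie on both sides; inactive = the rest.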 The list shows a part of the results.

Test: Components of the Cytosolic LPS Sensing Pathway: Gene Identification via Genome-wide siRNA Screen;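 note: robust z of the log signal after scaling to non-targeting control siRNA wells of the plate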
Conditions: RAW264.7 macrophages, IL-1a HTRF, actives lie on both sides, screened at 100 nM (by protocol), cells primed 5 h with Pam3CSK4 first
Procedure, shortened: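 Supernatant IL-1a by HTRF from RAW264.7 cells primed with Pam3CSK4 (5 hours) and transfected with LipidA (24 hour) after 48h siRNA knockdown at 100 nM; cell viability checked with CellTiter-Glo.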

| Sequence | z-score |
| --- | --- |
| GGCACCUUUCAACGUAACCTT against Ntn3 | inactive: 1.32 |
| GGUCAGAGAAAGAUGUAAATT against Mtfr1 | inactive: -0.915 |
| GGGCUUUUACCUGAAUCACTT against Megf9 | inactive: 0.438 |
| CCAAAUGAAGCUCUGAAGATT against Tmtc3 | inactive: -0.21 |
| GGUUACUCUCCAGAUGAAATT against Srpx2 | inactive: 0.0702 |
| GGCUAUUCCUUUGUGACCATT against Actg2 | inactive: -0.014 |
| GGACAUCAGAUGAGAAUGUTT against Rab19 | inactive: -0.408 |
| GGGUACCUAGGGUUAUGAATT against Hps6 | inactive: -0.606 |
| GGUUGUCAAAGUCAAACCATT against H1f0 | inactive: -0.527 |
| CGAAGCCUAUCGAAAAGUCTT against Adcyap1 | inactive: 0.998 |
| CCGUUCCAUCAUUAAGACCTT against Tssk2 | inactive: 0.359 |
| GGAACUUGGUGCAAUCAUCTT against Pld4 | inactive: -0.601 |
| GGUCAUUCUGGCUUAGUAATT against Hira | inactive: -0.335 |
| GUUCAAGAGGGAGCUGGAATT against Pomc | inactive: 0.842 |
| CGCUCAAAAAUGGAUUCAATT against Atad5 | inactive: 0.323 |
| GCCCACAUUUGUGUAAUUCTT against Olfr653 | inactive: -1.92 |
| GGUGAUCAGAAAGUACACCTT against Dtx2 | inactive: 0.818 |
| GGACACUUCCAUGUGCUACTT against Cep19 | active: 2.14 |
| GGCAGGACUCUGGAACAAGTT against Slc2a8 | inactive: -1.75 |
| GGAACAGAUUCUUAACUCCTT against Kash5 | inactive: 0.438 |
| CGAAUAUUGUGUCAGGUAUTT against Ppp4r1 | inactive: 0.134 |
| GGUCAGAAGAGAUGCCAAUTT against Hcar1 | inactive: -0.494 |

| Sequence | z-score |
| --- | --- |
| GGACUGAAAGACUUGCUCGTT against Hprt | inactive: -0.21 |
| GCAGUUUUUGAGUCACUACTT against Calm5 | inactive: 0.954 |
| GCGAAGGCGAUUUCUACUATT against A3galt2 | inactive: 0.275 |
| GGUGCUGGAGAUGAAGAACTT against Mtus2 | inactive: 1.42 |
| GCACAUGCAUAUCUGGAUCTT against Olfr577 | inactive: 0.768 |
| GGCAGAACCCUUUGAUGACTT against Fos | inactive: -0.0931 |
| CCAUUUAACCGUAAGACGUTT against Krtap19-5 | inactive: 0.346 |
| GGCAAAUACUUCACAUUAUTT against Nkrf | inactive: -1.36 |
| CCAUACAUCAGUACUUACCTT against Olfr553 | inactive: 0.477 |
| GGCCUCAACUAAGAACCCUTT against Pcdh1 | inactive: -0.298 |
| GGUGGAUAUUGAUAUCAAGTT against Fga | active: 3.31 |
| GCAGUUUUGGGCAAUACCUTT against Olfr358 | inactive: 1.22 |
| GGCUGCUCUAUUAUAAGAATT against Adap2 | inactive: 0.392 |
| CCUCAACAGUUCCUAAGUUTT against Olfr1275 | inactive: -0.00172 |
| GGAAAGGUGUGAACAAUUGTT against Myh8 | inactive: 0.297 |
| GGAUCGAUCUGUUGAACAGTT against Dag1 | inactive: 0.957 |
| GGAAGUGGUGGAACUCCUGTT against Tmem215 | active: -2.65 |
| GGCAACUCUUGAAGACUUGTT against Gdf15 | inactive: 0.00448 |
| GGUCACAAGAAGAGCUUUUTT against Eppk1 | inactive: 0.0614 |
| GGGAGAUCAAUCAUUACUUTT against Olfr332 | inactive: 0.281 |
| GGGAAUAUUUGAAAUUCCATT against Usp54 | inactive: -0.235 |
| GCCAGGUCAAGGCAUACUUTT against Apoa2 | inactive: 1.8 |

Shown with each value named: entries from further up.
GGCCUCAACUAAGAACCCUTT against Pcdh1
  z-score: inactive: -0.298
GGUGGAUAUUGAUAUCAAGTT against Fga
  z-score: active: 3.31
GCAGUUUUGGGCAAUACCUTT against Olfr358
  z-score: inactive: 1.22
GGCUGCUCUAUUAUAAGAATT against Adap2
  z-score: inactive: 0.392

More records follow.

| Sequence | z-score |
| --- | --- |
| CCCGUAACAAGAAUUAGCGTT against Mccc2 | inactive: -0.127 |
| GGAGAUCUUCAGUCUCCUUTT against Homer1 | inactive: 0.556 |
| GGAUUAGGUCAUUAUUAGGTT against Kcne3 | inactive: -0.202 |
| GGGACACACCAUCAAAAGGTT against Kank4 | active: -2.32 |
| CCAAUGUUUUAGGCUUCCGTT against Tulp1 | inactive: 0.614 |
| GGUCACAGCAAGUUAAUAATT against Ranbp9 | active: -2.1 |
| GGACAAGCUAGAAUUUGCCTT against Smim12 | inactive: -0.298 |
| GGCCUGUUUUUAAAAAGUCTT against Ddx51 | inactive: 1.95 |
| GCUCGAGUGUAAGAUCUGUTT against Rnf182 | inactive: 0.355 |
| GGUCAGACAACUCAGGAAGTT against Tnfrsf13b | inactive: -1.98 |
| GCUUCAUCUUACCUACUCATT against Synb | inactive: -0.825 |
| GGGCCAGAAGAAGAGUCGATT against Mllt6 | inactive: -0.304 |
| GCUGCAUUACAAGCCCAACTT against Zfp414 | inactive: -0.218 |
| GGUCCGAUACAUCUAAACUTT against Cxcl11 | inactive: 0.455 |
| GCGGCUAAAUAUCAACACUTT against Eepd1 | inactive: -0.657 |
| GGGUUUCUUGUUGGUUUUATT against Dock5 | active: 2.29 |
| GCUCGAUAUAAUUUCACACTT against Neto1 | inactive: -0.75 |
| GCAAAAACAGGAUCACCCATT against Lrig1 | inactive: -0.421 |
| GGACCUAUAGUUCAACAAGTT against Pcf11 | inactive: 1.08 |
| GGAUUCAUAAAAGAAGCAATT against Zfp90 | inactive: 0.8 |
| CCCUGGACAUUCUAAUUACTT against Lrfn2 | inactive: -1.71 |
| GGUAGAAAAUGAUACGUCUTT against Pdcd1lg2 | inactive: 0.267 |

| Sequence | z-score |
| --- | --- |
| GGAACAUCACUAACAAGUCTT against Cacna1g | inactive: -0.648 |
| GGUGCAGAUCCCAAAUCUGTT against Zc3h15 | inactive: 1.14 |
| GGAUGAUGACAUGAAGUUATT against Nlrp5 | inactive: 0.239 |
| GGGAAUUGAUCUAAUUGAATT against E2f5 | inactive: 1.71 |
| GCCAAGCCAUCUCAUUAAATT against Wdr18 | inactive: -0.724 |
| GUUUUACAAAUUCCUCCAUTT against Olfr1447 | inactive: 0.345 |
| CGAGUGGCUACUUUCCACUTT against Olfr152 | inactive: 0.311 |
| GAUGUGGCACCCAAACAUCTT against Cdc34 | inactive: -0.418 |
| GCUAAACGAGUUAUUGGUGTT against Ecpas | inactive: 0.829 |
| GGCGAAAAGCGACGCGGCCTT against Basp1 | inactive: 0.682 |
| GUUACUUGAAAAUUGGACATT against Vmn1r58 | inactive: -0.104 |
| GCUAAGUUGGAAUUUCCACTT against Chtop | active: 2.05 |
| CGGCUCUUAACAUUUUCAGTT against Eef2 | inactive: 0.559 |
| GGCGACAUUACAGAAUUGGTT against Iqsec2 | inactive: -0.189 |
| GCAAAGCCUUACCAUGUAATT against Ighg | inactive: 1.33 |
| CCAAUCCAAACGAAGUUAATT against Rgs9 | inactive: -0.977 |
| GCACUAAGUCCCAUGUGUCTT against Trim11 | inactive: -1.01 |
| UGUGGAACCCAGCACUUUUTT against Olfr458 | inactive: 0.562 |
| GGCCUAAGGCUGUGAAUGUTT against D2hgdh | active: -2.59 |
| GGUGUGUUUGCUAUUUCCATT against Olfr259 | inactive: 0.4 |
| GGAAGCAAACUUAAAGUGUTT against Ewsr1 | active: 2.17 |
| CCUCCUAUUUGGACAUUGCTT against Ints6l | inactive: 0.261 |

| Sequence | z-score |
| --- | --- |
| GGUUGAUAAAGUUUGAGUGTT against Sybu | inactive: -0.392 |
| GUCAAAUAUCCAUUAGAAGTT against Scgb2b26 | inactive: 0.271 |
| GGUGGCCAAACAGGAAAAGTT against Fau | inactive: 0.91 |
| GGGAAAAUAUCAGCUCAAUTT against D930048N14Rik | active: -2.63 |
| GGCAAAGACGACCUCUCACTT against Vtcn1 | inactive: -1.56 |
| GGCCAAGCAUUACAUUUAUTT against Srp54a | inactive: 0.255 |
| CCACCGUACUAAACUAUUCTT against Emilin1 | inactive: 1.97 |
| CCCUAAGAAUCCUUGUUCUTT against Vmn1r180 | inactive: -0.0605 |
| GGAGUCCUAGAACACACAGTT against Snap29 | inactive: -1.79 |
| GCCUUGUAUCGUCAUGUGATT against Card14 | inactive: 0.00832 |
| GGCUAUAAAAGGUACUGAGTT against Myocd | inactive: -0.864 |
| GGAGCUUGAUUCAGGAUGGTT against Ttc3 | inactive: -0.137 |
| GGCAUGAAUAUGCAUUUAGTT against Arrdc3 | active: -3.65 |
| CGAUUUCAUCGAACACUUCTT against Ccnd1 | inactive: 1.37 |
| GCGAGUGUAUCUCAACAGCTT against Pitpnc1 | inactive: 0.546 |
| GGCUAAGUACGUCAAGAGCTT against Fam110a | inactive: -1.09 |
| GGAAGUUAUAAAACAGAACTT against Inpp1 | inactive: 0.372 |
| GCCAUGUUCUUUGCUCCCATT against Pigl | inactive: -1.8 |
| CGAAUUUUGGAGAUGUAUGTT against Ddias | inactive: 0.376 |
